# Test results from the supplement of paper PMC3334620.
# In all, about 33,000 sequences were measured (“E-score (-0.5 to 0.5)”: median about -0.015, highest 2% from about 0.3 on). The list shows a part of the results.
# Target: T1, Abf1 (UniProt P14164)
# T1 sequence: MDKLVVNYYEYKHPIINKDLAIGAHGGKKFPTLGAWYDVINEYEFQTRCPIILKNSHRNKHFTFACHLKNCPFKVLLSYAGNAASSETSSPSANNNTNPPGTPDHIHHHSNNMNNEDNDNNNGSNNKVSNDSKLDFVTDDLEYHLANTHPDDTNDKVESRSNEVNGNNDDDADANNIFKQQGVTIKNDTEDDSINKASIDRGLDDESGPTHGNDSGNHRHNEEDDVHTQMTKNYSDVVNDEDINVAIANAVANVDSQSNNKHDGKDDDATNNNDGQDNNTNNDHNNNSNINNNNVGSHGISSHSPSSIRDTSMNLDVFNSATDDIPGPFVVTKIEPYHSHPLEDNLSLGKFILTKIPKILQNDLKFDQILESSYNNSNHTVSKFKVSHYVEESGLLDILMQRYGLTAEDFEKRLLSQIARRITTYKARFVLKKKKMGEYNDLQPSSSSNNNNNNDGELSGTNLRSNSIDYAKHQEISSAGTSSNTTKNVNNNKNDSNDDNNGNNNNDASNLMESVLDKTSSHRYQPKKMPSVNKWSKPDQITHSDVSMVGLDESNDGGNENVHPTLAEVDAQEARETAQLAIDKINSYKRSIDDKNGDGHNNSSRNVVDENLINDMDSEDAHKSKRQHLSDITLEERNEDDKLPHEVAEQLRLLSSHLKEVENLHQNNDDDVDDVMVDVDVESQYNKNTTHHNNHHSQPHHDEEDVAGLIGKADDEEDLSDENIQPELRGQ
# Assay: PBM E-score (8-mer binding enrichment) (E-score (-0.5 to 0.5)); higher = stronger / more preferred TF binding
# Details: protein concentration: 200 nM; construct: GST-full length
# Method in brief: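 The E-score, a modified Wilcoxon-Mann-Whitney statistic, was computed by the Universal PBM Analysis Suite for every ungapped eight-base word pooled with its reverse complement. Scans behind it were normalised with masliner after bound GST-tagged yeast transcription factors were detected with fluorescent anti-GST. The proteins, at about 100-200 nM, had been applied to universal all-10-mer Agilent arrays made double-stranded by primer extension.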
row,Sequence,PBM E-score
1,AGCCCCAG,-0.186
2,AATGAGCA,0.112
3,GATATTGC,0.118
4,CCCCACCG,-0.232
5,GATAATAA,0.24
6,CGGAAGTA,-0.0352
7,CGGGCATC,-0.0382
8,CGCTAAAC,0.123
9,CAGTAAGC,-0.0498
10,ATGCCCAG,-0.269
11,CCGTAGAG,0.102
12,GCCGAAGC,-0.185
13,AGGTGCCG,-0.0483
14,CCAGCCAA,0.029
15,AGCTCACT,-0.133
16,AGCTATCG,0.0623
17,CTTAACGA,0.188
18,CGTGTTGA,0.162
19,CGTTGCTA,0.0226
20,AGTTCGTG,0.326
21,ATTTCATA,0.0854
22,ACTACATG,0.0944
23,CGCGGCAA,0.0562
24,CCTCGTAG,0.17
25,GTACTTGA,0.125

row,Sequence,PBM E-score
1,ATCTACGG,0.344
2,CGGATACG,0.172
3,CAGTCGGC,-0.269
4,ACAAAGAG,0.00144
5,GTCAGGCA,0.12
6,AAAAAATC,-0.0225
7,CAGTGATG,0.255
8,ACCTGCCG,-0.24
9,ACCTTCTC,-0.00773
10,ACTTGGAC,-0.0592
11,GGGGGGAC,-0.294
12,CCGCTGAG,-0.0604
13,AGCGGCTA,-0.136
14,ATTGCGCC,-0.169
15,AGACATAG,0.0414
16,TCAATGAA,0.0569
17,GGATCCCA,-0.0451
18,GCACCTAC,-0.2
19,TAGACCAA,0.0272
20,CAGTCAAG,-0.109
21,AGAACACA,-0.215
22,AGGTTAGC,-0.196
23,CTATGTGA,0.0947
24,CGAACATA,0.0217
25,ATGACCCC,-0.103

# 5 neighbouring records already listed, quoted:
row,Sequence,PBM E-score
5,GTCAGGCA,0.12
6,AAAAAATC,-0.0225
7,CAGTGATG,0.255
8,ACCTGCCG,-0.24
9,ACCTTCTC,-0.00773

# Next part.

row,Sequence,PBM E-score
1,AGAAATGA,0.253
2,TACCAGAA,-0.0112
3,CGTTCGAC,0.122
4,ACCGACTC,-0.17
5,CCAGTGGC,-0.222
6,TAAAATGA,0.272
7,AAGTAGAG,-0.128
8,GGGCTGAC,-0.0684
9,CTATTACC,-0.106
10,ACGGGTAC,0.0111
11,ACACATCT,-0.0819
12,CCCACTAA,-0.0653
13,AATAAGTG,0.0946
14,AGCTTCTA,-0.182
15,AAGGTCGG,-0.323
16,CTTTAGGC,-0.143
17,ACGTACAA,0.218
18,CCCTAGCC,-0.163
19,CAGAGTCC,-0.029
20,CCCAGCTC,-0.179
21,GAATCCTC,-0.219
22,CGTGGCAC,-0.0836
23,CTCAACGA,0.102
24,ATGACGCA,0.137
25,ATGGGAGG,-0.21

# In another format: entries from further up
row	Sequence	PBM E-score
19	TAGACCAA	0.0272
20	CAGTCAAG	-0.109

# Following part

row,Sequence,PBM E-score
1,GCCCGGCA,-0.208
2,AAGGTTAC,0.00236
3,AAATGGCT,0.0556
4,ATTCAATG,0.0703
5,TACAGCGA,-0.0228
6,CGGGTGTA,-0.102
7,GCTTTCCC,-0.168
8,CTTGTACC,-0.0544
9,AGCTCGTA,0.149
10,TGCATGCA,-0.109
11,ATCGTCTC,0.25
12,ACTACTAC,-0.0341
13,ACAGTTCC,-0.126
14,AGTATAGA,0.0794
15,AATGTACG,0.192
16,AAGACAAT,0.138
17,CCTTCTAC,-0.155
18,GTGCTTCA,-0.0747
19,CGCGGCCG,-0.0338
20,CTTCTTGC,0.0382
21,ACGCCCCA,0.0166
22,CGGCGGAC,-0.0162
23,CGCCAGCC,-0.207
24,ACACTGGC,-0.166
25,GGGAAGCA,-0.179

row,Sequence,PBM E-score
1,TACAGAGA,-0.0628
2,CGTTCCAG,-0.0488
3,AATGCCCA,-0.0751
4,ACTTGGGG,-0.194
5,CCAGAGAA,0.053
6,GCAACTGC,-0.0516
7,ACAATAAG,0.00628
8,CAAAAAAC,0.0887
9,GACAAACC,-0.0479
10,ATCTCGGC,-0.123
11,GCCCATTA,-0.0331
12,GCTGTTTA,-0.0984
13,TGCCGGAA,0.0414
14,AAATTCCG,0.132
15,GATCCACA,0.032
16,AGCCGGTC,-0.144
17,CAGAATGC,-0.0625
18,CCTCTCCA,-0.358
19,TCACACCA,0.112
20,GACGACTA,0.183
21,ACACTATC,0.127
22,ACGAGTCA,0.0417
23,AAATGTAC,0.188
24,CATAATTC,-0.0101
25,CGTCTTCA,0.174

row,Sequence,PBM E-score
1,ACGGGTGA,0.32
2,GCCCACGC,-0.0827
3,CGAAGAAA,0.0654
4,TAAACTAA,0.151
5,AGTGATCC,0.189
6,CAATTTAC,-0.0222
7,GTCTTAAC,0.0868
8,CCCCAGTA,-0.0493
9,CCGGGAGA,-0.141
10,CCAAGAGC,-0.155
11,ATAGGCTC,-0.0801
12,CCGAAACG,0.0848
13,CGTAGTGC,-0.0507
14,CCGAGCAA,-0.168
15,CAGATAGA,-0.192
16,GGAAGCCA,-0.293
17,CCGTGGTC,-0.0733
18,CCGCACCA,-0.101
19,GATATGCC,0.202
20,CGAGAACA,-0.0208
21,TATAAGAA,0.143
22,CGGGTGAG,-0.286
23,AATTTGTC,0.221
24,ATGCTCTA,0.036
25,TCAAAACA,0.0732

row,Sequence,PBM E-score
1,CTTTTCGC,-0.0129
2,TCCGACAA,-0.0321
3,CCTGCCAC,-0.188
4,ACTAGATG,0.145
5,CGGTGTCA,0.132
6,CTTATAAG,-0.0748
7,GAATGAAA,-0.0868
8,ACCCGCTG,-0.0686
9,CCCCGGCG,-0.127
10,AACGGGTG,0.27
11,CTCCGACC,-0.312
12,AACACTCC,-0.121
13,AAAGCTCC,-0.0576
14,ATCCGCAA,0.0167
15,CTCTTGCC,-0.0459
16,AACGTAGA,0.0866
17,AGCTAAGC,-0.215
18,CAACTCCG,-0.208
19,ATATTTCG,0.141
20,AAGTATGC,0.0968
21,GCTTACCC,-0.233
22,TCACTCAA,0.195
